Assay results published in publication PMC8270960, “Native flagellar MS ring is formed by 34 subunits with 23-fold and 11-fold subsymmetries” (Nature Communications, 2021).
These are yes or no findings as the source states them, for the method shown. For some assays here: In cells and extracts the contact can be indirect. Some binding calls cover weakened binding; strength is not graded here. For some assays here: Tags and fused reporters may be left off the sequences shown.

T1: wild-type FliF expressed from a plasmid in Salmonella TH12415 (ΔfliF) (Salmonella enterica serovar Typhimurium) (UniProt P15928)
T1 sequence: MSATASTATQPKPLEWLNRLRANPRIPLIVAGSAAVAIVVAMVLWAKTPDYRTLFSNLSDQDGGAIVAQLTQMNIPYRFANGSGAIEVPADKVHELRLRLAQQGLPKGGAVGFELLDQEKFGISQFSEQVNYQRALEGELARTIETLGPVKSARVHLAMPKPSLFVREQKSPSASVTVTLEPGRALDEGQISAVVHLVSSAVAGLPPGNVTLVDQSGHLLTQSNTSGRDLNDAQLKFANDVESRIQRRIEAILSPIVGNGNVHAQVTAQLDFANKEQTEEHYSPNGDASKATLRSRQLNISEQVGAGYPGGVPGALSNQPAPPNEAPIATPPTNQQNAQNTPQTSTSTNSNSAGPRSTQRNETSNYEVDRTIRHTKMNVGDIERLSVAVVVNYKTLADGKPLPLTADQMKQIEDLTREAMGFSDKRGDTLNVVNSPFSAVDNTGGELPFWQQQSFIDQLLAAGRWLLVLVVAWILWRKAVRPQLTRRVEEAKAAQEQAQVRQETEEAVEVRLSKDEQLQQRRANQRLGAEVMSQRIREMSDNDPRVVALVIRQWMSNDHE

T2: FliF of the native flagellar basal body (native MS ring) (Salmonella enterica serovar Typhimurium (endogenous in HK1003)) (UniProt P15928)
T2 sequence: T1 sequence

B1: FliN (C ring protein) (protein, UniProt P26419 1-137)
chain: MSDMNNPSDENTGALDDLWADALNEQKATTTKSAADAVFQQLGGGDVSGAMQDIDLIMDIPVKLTVELGRTRMTIKELLRLTQGSVVALDGLAGEPLDILINGYLIAQGEVVVVADKYGVRITDIITPSERMRRLSR
B2: type III protein export gate formed by FliP, FliQ, and FliR (complex, UniProt P54700;P0A1L5;P54702)
chain 1: QLPGLISQPLAGGGQSWSLSVQTLVFITSLTFLPAILLMMTSFTRIIIVFGLLRNALGTPSAPPNQVLLGLALFLTFFIMSPVIDKIYVDAYQPFSEQKISMQEALDKGAQPLRAFMLRQTREADLALFARLANSGPLQGPEAVPMRILLPAYVTSELKTAFQIGFTIFIPFLIIDLVIASVLMALGMMMVPPATIALPFKLMLFVLVDGWQLLMGSLAQSFYS
chain 2: MTPESVMMMGTEAMKVALALAAPLLLVALITGLIISILQAATQINEMTLSFIPKIVAVFIAIIVAGPWMLNLLLDYVRTLFSNLPYIIG
chain 3: MIQVTSEQWLYWLHLYFWPLLRVLALISTAPILSERAIPKRVKLGLGIMITLVIAPSLPANDTPLFSIAALWLAMQQILIGIALGFTMQFAFAAVRTAGEFIGLQMGLSFATFVDPGSHLNMPVLARIMDMLAMLLFLTFNGHLWLISLLVDTFHTLPIGSNPVNSNAFMALARAGGLIFLNGLMLALPVITLLLTLNLALGLLNRMAPQLSIFVIGFPLTLTVGIMLMAALMPLIAPFCEHLFSEIFNLLADIVSEMPINNNP

Key:
[1] = molecular target: T1, wild-type FliF expressed from a plasmid in Salmonella TH12415 (ΔfliF) (Salmonella enterica serovar Typhimurium); assay: co-sedimentation; membrane fractions of Salmonella TH12415 transformants (sonication, 100,000 x g), SDS-PAGE, immunoblot with anti-FliF or anti-FliN; ΔfliF as negative control
[2] = molecular target: T2, FliF of the native flagellar basal body (native MS ring) (Salmonella enterica serovar Typhimurium (endogenous in HK1003)); assay: cryo-EM structure; 3D reconstruction of the basal body purified from Salmonella HK1003 in Buffer I, C-ring density subtracted, 6.8 Å; both purified

Row | Binder | binding [1] | binding [2]
1 | B1 | binds | –
2 | B2 | – | binds
